The results in this text go back to patent US20100160234A1.

The chains behind the UniProt entries cited, without tags or fusion partners.
UniProt P06730: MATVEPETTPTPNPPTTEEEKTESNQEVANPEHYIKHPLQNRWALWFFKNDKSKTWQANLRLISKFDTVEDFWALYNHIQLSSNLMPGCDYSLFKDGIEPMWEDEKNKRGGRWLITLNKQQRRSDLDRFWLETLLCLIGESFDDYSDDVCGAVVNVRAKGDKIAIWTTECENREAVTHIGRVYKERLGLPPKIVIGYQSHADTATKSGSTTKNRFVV

For assay [1], the target named is Human eIF4E (immobilised in ELISA wells) (human) (UniProt P06730). The assay is described as follows: ELISA, human eIF4E coated on the plate, GST-fusion peptide detected with anti-GST HRP antibody. In general terms: ELISA stands for enzyme-linked immunosorbent assay.
For assay [2] the target is unchanged. Kind of assay: ELISA, human eIF4E coated on the plate, GST-fusion protein detected with anti-GST HRP antibody.

No constants are given. Whether binding was seen depends on the method and setting. Some results given as binding are weak or reduced against the parent protein; the word gives no strength. For part of these data: Where a sequence is shown, tags or fusion partners need not be part of it.

Regarding “GST-fusion of VPg2 (SEQ ID NO: 14) (from UniProt P18247 1884-1937)”, in assay [1], the binding entry was “binds”. Same read-out and setting: under “GST-fusion of VPg4 (SEQ ID NO: 16) (from UniProt P18247 1884-1925)” stands “binds”.

B1: GST-fusion of PVY VPg protein (SEQ ID NO: 2) (protein, not shown: a dimerising Fc or GST)
chain: GKNKSKRIQALKFRHARDKRAGFEIDNNDDTIEEFFGSAYRKKGKGKGTTVGMGKSSRRFINMYGFDPTEYSFIQFVDPLTGAQIEENVYADIRDIQERFSEVRKKMVENDDIEMQALGSNTTIHAYFRKDWSDKALKIDLMPHNPLKVCDKTNGIAKFPERELELRQTGPAVEVDVKDIPAQEVEHE
Take B1: in assay [2], the binding entry is reported as “binds”.
